Experimental findings from PubChem BioAssay AID1347421 (Sanford-Burnham Center for Chemical Genomics, 2020) are described below.

Chains of the proteins cited; added tags and fusions are not shown. Lines headed by an entry give the natural chain unless they say otherwise; changes in a name come on top.
UniProt O00391: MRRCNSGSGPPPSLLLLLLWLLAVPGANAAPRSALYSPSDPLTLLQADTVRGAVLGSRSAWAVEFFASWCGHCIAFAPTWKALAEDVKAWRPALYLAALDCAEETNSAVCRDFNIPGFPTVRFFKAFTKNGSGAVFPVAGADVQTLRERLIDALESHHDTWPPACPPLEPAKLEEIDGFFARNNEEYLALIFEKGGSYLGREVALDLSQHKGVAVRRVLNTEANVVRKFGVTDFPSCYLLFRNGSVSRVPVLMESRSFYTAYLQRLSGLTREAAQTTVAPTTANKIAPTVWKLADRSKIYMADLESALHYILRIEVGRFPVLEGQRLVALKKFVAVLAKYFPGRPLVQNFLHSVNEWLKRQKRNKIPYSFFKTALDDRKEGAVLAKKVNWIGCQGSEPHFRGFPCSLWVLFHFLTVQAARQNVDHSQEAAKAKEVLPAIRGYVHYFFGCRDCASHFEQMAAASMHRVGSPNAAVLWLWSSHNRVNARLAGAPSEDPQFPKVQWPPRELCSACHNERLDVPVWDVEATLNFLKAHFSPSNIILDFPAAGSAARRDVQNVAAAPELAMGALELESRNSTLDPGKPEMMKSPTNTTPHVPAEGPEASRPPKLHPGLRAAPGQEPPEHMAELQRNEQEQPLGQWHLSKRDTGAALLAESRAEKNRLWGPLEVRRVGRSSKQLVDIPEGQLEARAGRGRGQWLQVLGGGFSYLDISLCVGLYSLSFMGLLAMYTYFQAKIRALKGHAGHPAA

Whole data set: some 1,500 compounds, median “activity” near 2, cut for the lowest 2% near -18. Some of the results follow. Activity calls are given as the source filed them.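 The calls were made as follows: active = inhibition of at least 40% at 10 µM; inconclusive = no clear call, values can overlap the other calls; inactive = the rest.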

This assay concerns the target Sulfhydryl oxidase 1 (Homo sapiens) (UniProt O00391). The assay can be described thus: QSOX1 enzyme inhibitors, confirmation, biochemical, ROS-Glo luminescence, single concentration (AID 1347421).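 Also: 0% = DMSO wells with enzyme and 100% = wells lacking QSOX1 enzyme.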 The note with it: recombinant hQSOX1, RNase A substrate, ROS-Glo H2O2 luminescence; at 10 µM.
Regarding `COc1nc2ccccc2nc1CCC(=O)NC1CCCCCC1`, the activity was inactive: -2.6%.
On to `CN(C)CCC1CN(Cc2ccc(Cn3cccn3)cc2)CCO1` (centres undefined), for which the activity stood at 5.4%.
In the case of `CCC(=O)N1CCCC(C(=O)Nc2ccccc2Oc2cccnc2)C1` (centres undefined) it was 0.4%.
As for `Fc1cccc(C2(CN3CCCO3)CCOC2)c1` (centres undefined), the activity came out at 7.3%.
For the molecule `CCS(=O)(=O)c1ncc(CN2CCC(OCc3ccccc3)CC2)n1CCOC`, the activity was 24.8%.
Regarding `O=C(NC1CCCC1)c1ccc(OC2CCN(C(=O)C3CCOC3)CC2)c(Cl)c1` (centres undefined), the activity came to 6.6%.
For `O=C(c1cn(Cc2ccc(Cl)cc2)nn1)N1CCC(C(=O)N2CCCC2)CC1` the value was inactive: -2.4%; for `O=C1CC(C(=O)N2CCC(Oc3ccc(C(=O)NCCc4ccccc4)cc3)CC2)CN1` (centres undefined), 3.2%.
`COC(=O)CCCNC(=O)CC1C(=O)NCCN1Cc1ccccc1OC` (centres undefined): the activity was determined as 4.7%.
On to `COc1ccccc1CCN1CCC(CN(C)C(=O)c2cscn2)CC1`, for which the activity was inactive: -1.8%.
`CSCc1ccc(C(=O)N2CCC3(CCCN(CC(C)(C)C)C3)C2)o1` (centres undefined): the activity is inactive: -0.7%.
For `O=C(c1cn(Cc2ccccc2C(F)(F)F)nn1)N1CCCCCC1`, the activity amounted to 2.1%.
For `COc1cc2c(cc1OC)CN(C1CCCN(C(=O)c3csnn3)C1)CC2` (centres undefined) the value was 9.3%.
In the case of `CCn1ccnc1Cn1ccc(-c2cccc(-c3nccs3)c2)n1`, the activity was inactive: -7.8%.
Turning to `CCN1CCN(C(=O)CCC2CCN(C(=O)c3[nH]c(C)cc3C)CC2)CC1`, the activity came out at 1.7%.
In the case of `Cc1n[nH]c(C)c1CCN(C)C(=O)c1cn(Cc2ccccc2F)nn1` it was 1.2%; in that of `CC(C)Cc1cc(CN2CCCC(CCC(=O)N3CCOCC3)C2)[nH]n1` (centres undefined), 3.4%.
Take `CC(C)NC(=O)C(C)Oc1ccc(S(N)(=O)=O)cc1` (centres undefined): the activity is inactive: -12.8%.
In the case of `O=C1CC(NCc2cccc(O)c2)CN1CCc1cccc(Cl)c1` (centres undefined), the activity is 1.5%.
Regarding `CCN(CC)CC(=O)NCc1cccnc1N1CCN(c2ccccc2C)CC1`, the activity came out at 2%.
Turning to `NS(=O)(=O)C1=[C+]C=C(CCNCc2ccc(Br)cc2)C=C1`, the activity is inactive: -0.1%.
Take `CN(C)CCC1CN(C(=O)CSc2ccccc2)CCO1` (centres undefined): the activity worked out at 4.2%.
For `COc1cc(-c2nc(CN(CCO)Cc3cccs3)c(C)o2)cc2c1OCO2` the value was 9.2%; for `COc1ccccc1C(=O)C1CCCN(Cc2cccc(OCCO)c2)C1` (centres undefined), inactive: -3.3%.
In the case of `CCCCOc1ccccc1C(=O)Nc1ccccc1C(N)=O` it was 2.2%; in that of `Cc1noc(C)c1CC(=O)NCc1cccnc1-n1cnc2ccccc21`, 19.8%; in that of `COCCN(CC1CCN(Cc2ccccc2F)CC1)C(=O)CCn1nccc1C`, inactive: -3.3%.
As for `CC(C)Oc1cccc(C(=O)N2CC(C)OC(C)C2)c1` (centres undefined), the activity was determined as 0.9%.
For `COc1ccccc1C1CCCN1C(=O)Cn1ncc(N2CCNCC2)cc1=O` (centres undefined), the activity is 2.6%.
Take `CCN(C)C(=O)c1cc(-c2cnn(C(C)C)c2)nc2cc(Cl)ccc12`: the activity is 0.7%.
For `c1csc(CNc2nc3nonc3nc2N2CCCC2c2nccs2)c1` (centres undefined) the value was 1.6%.
Regarding `COC(=O)c1ccc(-c2nc(CN(C)C(C)c3nc(C)cs3)c(C)o2)cc1` (centres undefined), the activity was 4.2%.
For `CCn1ncc(CNC(C)c2cnn(-c3ccccc3)c2C)c1C` (centres undefined) the value was inactive: -2.3%; for `Cc1nnc(SCC(=O)NC23CC4CC(CC(C4)C2)C3)s1`, inactive: -16.4%.
For `O=C(c1cnccn1)N1CCc2onc(-c3ccc(F)c(F)c3)c2C1`, the activity is inactive: -0.4%.
Regarding `O=C(CCc1cnccn1)NC1CCCN(C2CCCCCC2)C1` (centres undefined), the activity stood at 5.1%.
For the molecule `CN(CCOc1ccccc1)Cc1nc(-c2ccccn2)no1`, the activity came to 3.2%.
For the molecule `CC(C)(C)NC(=O)c1ccccc1NC(=O)c1cccnc1`, the activity stood at 0.6%.
Regarding `CCN1CCCC1CNC(=O)CCC1CCN(C(=O)CCN2CCCCO2)CC1` (centres undefined), the activity was inactive: -7.1%.
In the case of `CC1CCN(Cc2nnnn2CC(=O)NCCCOc2cccnc2)CC1`, the activity is inactive: -3%.
In the case of `COCc1ccc(CN2CCC(CCC(=O)Nc3ccc(OC)cc3OC)CC2)o1` it was 7.4%.
In the case of `CN(CCc1ccccn1)[C@@H]1CCN(Cc2ccc(C#CCO)s2)C[C@H]1O` it was 4.2%; in that of `Cc1ccc(C)c(NC(=O)N2CCN(c3ccc(N4CCCCC4)nn3)CC2)c1`, inactive: -2.6%; in that of `O=C(NC(=O)N1CCCC1)c1ccc(Cl)cc1`, inactive: -2.8%.
For `COc1cnc(N2CC(N3CCOCC3)C2)nc1-c1ccnn1C`, the activity was determined as 9.4%.
On to `CC(C)CCCC1CN(C(=O)c2ccc(N3CCCC3=O)cc2)CCO1` (centres undefined), for which the activity was determined as 7.7%.
For the molecule `C#CCN(CC=C)C(=O)CCc1nnc(Cc2cccc(C)c2)o1`, the activity was determined as 10.7%.
`COc1ccc(CNCCN2CCCC2)cc1OCC(O)CN(C)C(C)C` (centres undefined): the activity stood at 4.7%.
Take `CC(=O)N1CCN(c2ncccc2CNCc2ccccc2-c2ccco2)CC1`: the activity was inactive: -0.1%.
In the case of `COCC(=O)N1CCC(Oc2ccc(C(=O)NCC3CCOCC3)cc2)CC1` it was 8%; in that of `OCC1CCN(C2CCCN(Cc3cccc(OC4CCCC4)c3)C2)CC1` (centres undefined), 7%; in that of `CC(C)Oc1ccc(NC(=O)CCN2C(=O)c3ccccc3C2=O)cc1`, 0.6%.
For `Fc1ccc(C2(c3noc(-c4cn5ccsc5n4)n3)CCOC2)cc1` (centres undefined) the value was 0.2%; for `C=CCNC(=O)N1CCC2(CCCN(Cc3cccc(C)c3)C2=O)C1` (centres undefined), 4.7%; for `COc1ccc2oc3nc(=O)c4ccccc4c-3cc2c1`, inactive: -123%.
Take `CCN(CC)CCN(C)Cc1nc(-c2ccc(C(F)(F)F)cc2)no1`: the activity came out at 3.8%.
As to `CN(CC(O)COc1ccccc1CNCCc1cnc[nH]1)C1CCCCC1` (centres undefined), the activity was 6.7%.
In the case of `COC(=O)CN(C)Cc1ccc(OC)c(OCC(O)CN2CCN(C)CC2)c1` (centres undefined) it was inactive: -9.1%; in that of `Cc1ccccc1CCC1CCCN(Cc2nc[nH]c2C)C1` (centres undefined), inactive: -0.6%.
`COc1ccc(CNCc2cc(C)no2)cc1OCC(O)CN1CCCC1` (centres undefined): the activity was 5.2%.
On to `COCC1CCN(Cc2ccc(OC)cc2OCC(O)CN2CCN(C)CC2)CC1` (centres undefined), for which the activity was inactive: -0.7%.
For `O=C1N(Cc2ccccc2F)CCCC12CCN(Cc1ncc[nH]1)C2` (centres undefined), the activity was 7%.
As for `Cn1nc2c(c1NC(=O)Cn1ncc3cccnc31)CCC2`, the activity stood at 4.2%.
In the case of `Cc1nc2cc(C(=O)NC3CCCN(c4ncccn4)C3)ccc2s1` (centres undefined) it was 6.6%; in that of `Clc1ccc(Cn2nnc(-c3ccncc3)n2)cc1Cl`, 9%; in that of `CCCCS(=O)(=O)N1CCN(c2ccc(C)cc2)C(C)C1` (centres undefined), 6.6%.
`Cc1nc(C)c(CN2CCOC(CC3CCCCC3)C2)nc1C` (centres undefined): the activity turned out to be 4.5%.
For `O=C(c1ccsc1)N1CCC2(CCCN(CCC3CCCCC3)C2=O)C1` (centres undefined) the value was inactive: -4.3%; for `CCOc1ccc2nc(CN3CCN(C4CCCCC4)C(CCO)C3)ccc2c1` (centres undefined), 4.2%; for `CCCC(C)c1n[nH]c2c1CN(C(=O)CCn1c(=O)[nH]c3ccccc31)CC2` (centres undefined), 6.2%.
Take `COC(=O)c1ccc(N2C[C@H]3OC(=O)N(CCc4ccccn4)[C@H]3C2)nc1`: the activity was found to be 6%.
In the case of `O=c1cc(N2CCNCC2)cnn1CCOCc1ccccc1`, the activity turned out to be 5.2%.
Take `COc1cccc(CCNC(=O)CCc2nnc(-c3ccc4c(c3)OCO4)o2)c1`: the activity is 2.6%.
In the case of `CN(C)c1ncc(CN2CCc3onc(-c4ccccc4F)c3C2)s1` it was inactive: -3.9%; in that of `CCN1CCCC1CN(CC1CCN(CCOC)CC1)C(=O)CCc1scnc1C` (centres undefined), inactive: -2.1%; in that of `CC(C)c1cc(C(=O)N2CCCC(CO)(CCc3ccccc3)C2)on1` (centres undefined), 3.2%.
In the case of `Cc1oc(-c2cccs2)nc1CN(C)Cc1ccc2nonc2c1`, the activity was inactive: -5.9%.
`COc1cccc(OC)c1C(=O)NC1CC2CCC1C2` (centres undefined): the activity was inactive: -9.8%.
In the case of `O=C(CN1CC(c2ccccc2)CC1=O)N1CCC(N2CCOCC2)CC1` (centres undefined), the activity turned out to be 0.3%.
Regarding `CCn1cc(CN2CCCC(N(C)CCc3ccc(OC)c(OC)c3)C2)cn1` (centres undefined), the activity was determined as 3.9%.
For `OCc1ccc(OCCOc2cccc3cccnc23)cc1` the value was 17.5%; for `O=c1c2c3c(sc2ncn1Cc1nn[nH]n1)CCC3`, 2.7%.
Consider `Cc1ccc(-c2n[nH]c(-c3ccncc3)n2)cc1`, for which the activity is 8.8%.
`COCCCNc1ccc(C(F)(F)F)cn1`: the activity was 3.7%.
With `Clc1cccc(N2CCN(C3CCCN(CC4CC4)C3)CC2)c1` (centres undefined), the activity worked out at 3.7%.
As for `O=C(CCC1CCCN(C(=O)c2ccc[n+]([O-])c2)C1)NCc1ccc(F)c(F)c1` (centres undefined), the activity came out at 2.4%.
Take `COc1cccc(CNC2CC(=O)N(CCc3ccc(F)cc3)C2)c1` (centres undefined): the activity amounted to 0.1%.
Turning to `O=C(NCc1ccccc1)N1CCN(CCO)CC1`, the activity came to 2.5%.
As to `COc1ccc(CCN2CC(NC(=O)c3scnc3C)CC2=O)cc1` (centres undefined), the activity is inactive: -3.6%.
In the case of `Cn1cc(CCNCc2ccccc2OCC(O)CN2CCSCC2)cn1` (centres undefined), the activity turned out to be 2.1%.
As for `CC1CCc2c(sc3nc(SCC(=O)N4CCOCC4)[nH]c(=O)c23)C1` (centres undefined), the activity was inactive: -16.6%.
As for `COc1ccc(S(=O)(=O)N2CCCC2)cc1N(C)S(C)(=O)=O`, the activity was inactive: -11%.
As to `CN(C)CC(=O)NC1CC(=O)N(Cc2ccccc2C(F)(F)F)C1` (centres undefined), the activity is 1%.
With `COc1cc2c(cc1OC)CN(C1CCCN(C(=O)CSc3nncn3C)C1)CC2` (centres undefined), the activity amounted to 5.4%.
As for `COc1cc(C(=O)Nc2ccc(N3CCN(C)CC3)c(Cl)c2)cc(OC)c1OC`, the activity is inactive: -12.8%.
Regarding `CC(C)OCCNC(=O)c1cc(COc2cccc3cccnc23)on1`, the activity came to 2.2%.
For `CS(=O)(=O)c1ncc(CO)n1Cc1ccccc1` the value was inactive: -4.5%.
For `O=C(NCC(=O)N1CCN(c2ccccc2)CC1)c1cccs1`, the activity was inactive: -14%.
Consider `CN(CCc1ccccn1)c1ncccc1CNC1CSCCSC1`, for which the activity is inactive: -4%.
Take `CN(Cc1cccc(-n2cccn2)c1)CC1(O)CCCN(CC2CC2)C1=O` (centres undefined): the activity stood at 4%.
Take `CC(C)CCn1c(CN(C)Cc2ccncn2)cnc1S(=O)(=O)C(C)C`: the activity was 4%.
With `COCc1ccc(CN2CCCC(Nc3ccc(F)c(F)c3)C2)o1` (centres undefined), the activity was inactive: -2.5%.
For the molecule `NCc1ccccc1SC1=[C+]C=C[C+]=C1CN1CCOCC1`, the activity is inactive: -11.3%.
Take `CCCSc1ncc(Cl)c(C(=O)NCc2ccccc2)n1`: the activity was 2.8%.
In the case of `Cc1cc(S(=O)(=O)NC2CC(=O)N(CC(C)(C)C)C2)c(C)s1` (centres undefined) it was 9.9%; in that of `CC(=O)N1CCN(Cc2cccc(OCC(O)CN(C)C3CCCCC3)c2)CC1` (centres undefined), 7.3%; in that of `O=C(Nc1cc(Cl)ccc1Cl)N1CCN(C(=O)C2CCCO2)CC1` (centres undefined), inactive: -2.6%.
Take `CCn1ccnc1CNC(=O)CC1C(=O)NCCN1CCCc1ccccc1` (centres undefined): the activity was 5.2%.
As to `Cc1n[nH]c(C)c1CCCN(C)CC1(c2cccc(F)c2)CCOC1` (centres undefined), the activity was found to be 7.1%.
